# Primary screen of a compound library

The values are deposited in ChEMBL (CHEMBL3988442, “University of Dundee, Small-Polar-MMV Screening Library” (2021)).

Each number is a percent effect as filed.
How 0% and 100% were set is not recorded. Most values in the screen are low, and negative values occur.
This is an unselected part of the compounds tested.
A dash means the value is not listed here; it may have been measured.

T. brucei: 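Whole-parasite assay of Trypanosoma brucei over 72 hours; the read-out is not stated. Concentration: 30 µM. Direction is inferred from retests: higher values go with stronger inhibition. Values scatter widely below zero; nearly all retest evidence comes from the higher of the two concentrations used. Of about 64,000 compounds tested this way, about 940 (1.5%) reached 50% or more in at least one test.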
Toxoplasma: 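Assay of Toxoplasma gondii numbers, read through their beta-galactosidase reporter with a colour substrate. Compounds at 10 µM. The record gives no direction; the compounds picked for IC50 retests had high values, so higher reads as fewer parasites. Of about 67,000 compounds tested this way, about 260 (0.38%) reached 50% or more in at least one test.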
Leishmania in macrophages: 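Cell assay of Leishmania donovani living inside macrophages; the read-out is not stated. Tested at 30 µM. Direction is inferred from retests: higher values go with stronger inhibition. Size under these conditions: about 69,000 compounds, about 1,000 of them at 50% or above in at least one test.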

| Compound | T. brucei | Toxoplasma | Leishmania in macrophages |
|---|---|---|---|
| `CC1(C)OCC(CNC(=O)c2cnn(-c3cccc(Cl)c3Cl)c2N)O1` (stereo unspecified) | -54.32 | -20.19 | 16.89 |
| `O=C(O)C(F)(F)F.O=C1COC2(CCN(CC3CC3)CC2)CN1c1cncnc1` | -12.06 | -2.109 | 4.586 |
| `CC(C)(C)c1ncc(S(C)(=O)=O)c(C2CCCNC2)n1` (stereo unspecified) | -10.33 | 9.886 | 2.188 |
| `COCC(=O)N1CCCC(C(=O)c2cnn(-c3ccc(F)cc3)c2N)C1` (stereo unspecified) | -21.38 | 7.678 | 21 |
| `COc1ccc(C(=O)O)cc1-c1cccc(C(C)N(C)C)c1` (stereo unspecified) | -46.07 | 9.459 | 8.654 |
| `C[C@H](O)CNC(=O)c1cnc(-c2ccccc2)nc1O` | 12.08 | -1.039 | 5.617 |
| `Cn1cc(CC2CCN(C(=O)NCCCc3ccc(O)cc3)C2)cn1` (stereo unspecified) | -5.437 | -15.35 | 0.9752 |
| `NC(=O)C1CN(C(=O)c2ccc(F)cc2)CCN1CCc1ccccc1` (stereo unspecified) | -20.27 | -2.314 | -25.81 |
| `O=C1NC(C(=O)NCc2cccnc2Oc2ccccc2F)CO1` (stereo unspecified) | -24.43 | 5.641 | -49.82 |
| `CCCc1n[nH]cc1C(=O)NCC1COc2cc(OC)ccc2C1` (stereo unspecified) | -41.67 | 3.452 | -5.086 |
| `O=C1CCCN1c1cccc(CNCc2nc(-c3ccco3)no2)c1` | -38.91 | -21.46 | -19.6 |
| `COc1cccc2c1OCCCN(Cc1ccc(C(N)=O)c(=O)[nH]1)C2` | -28.02 | 2.497 | 18.01 |
| `Cc1cc(NCCNc2ccc(C#N)cn2)nc(C)n1` | -18.34 | 2.127 | 2.925 |
| `CCCNC(=O)CN1CCCC1c1nc(Cc2ccc(F)cc2)no1` (stereo unspecified) | -14.51 | 0.3544 | 34.85 |
| `CC(C)OCCCNC(=O)CS(=O)(=O)Cc1ccc(C(C)(C)C)cc1` | - | 13.09 | 23.35 |
| `[H][C@@]12CCN(C(=O)c3ccco3)C[C@@]1([H])O[C@H](c1nccs1)C2` | -23.58 | -16.59 | 19.36 |
| `Cc1ccccc1OC1CCN(CC(=O)Nc2c(C)nn(C)c2C)CC1` | 11.58 | 9.975 | 4.305 |
| `CC1c2ncc(COCC3CC3)n2CCN1C.O=C(O)C(F)(F)F` (stereo unspecified) | - | -9.808 | 11.79 |
| `CCc1cc(=O)n(CC(=O)N2CCC(C)CC2)c(-c2ccccc2)n1` | 5.312 | -3.112 | 5.143 |
| `CSCC[C@H](NC(=O)Cn1ccc2ccc(Cl)cc21)C(=O)O` | -40.76 | -0.2282 | -2.11 |
| `Cl.Cl.O=C(NCc1cncc2c1CCN(C1CCOC1)C2)c1ccco1` (stereo unspecified) | -14.18 | -19.3 | 15.02 |
| `Cc1cc(C(=O)N(C)Cc2ccccc2OCC(C)C)cc(=O)[nH]1` | -12.45 | 8.063 | -4.476 |
| `CCCn1ccnc1-c1nccn1CCC(N)=O` | 14.93 | 2.757 | 20.96 |
| `Cn1ccc(C(=O)NCc2ccc(N3CCCCCC3)nc2)cc1=O` | -0.9831 | -3.199 | 2.933 |
| `O=C1CCOC[C@]2(CN(Cc3ccccc3)C[C@H]2c2cccnc2)N1` | -7.87 | 22.71 | -48.24 |
| `CC(C)c1ccc(C(N)c2cccs2)cc1` (stereo unspecified) | -43.02 | -1.478 | -1.032 |
| `Cc1noc(C)c1CN1CCC(N(C)Cc2nnc(C3CC3)n2C)C1` (stereo unspecified) | -3.078 | 1.18 | 24.44 |
| `c1ccc(O[C@H]2COCCN(CC3CC3)C2)cc1` | -13.18 | 1.883 | 14.35 |
| `Cc1cnn(CC2CCCN2C(=O)c2ccc(C(N)=O)cn2)c1` (stereo unspecified) | -22.54 | -4.887 | 4.408 |
| `CCNc1cc2c(nn1)CCN(C(=O)c1cccnc1N(C)C)C2` | 7.539 | -10.93 | 2.024 |
| `CCCc1ccc2oc(C(=O)N3CCC(O)CC3)c(C)c2c1` | -42.38 | 42.91 | 7.705 |
| `Cn1ccnc1-c1cn(Cc2cn3c(n2)SCC3)nn1` | -20.89 | 13.93 | 29.02 |
| `CN(C)c1ccc(CNC(=O)NCCc2cn3ccccc3n2)cn1` | -12.31 | -22.03 | 21.43 |
| `Cc1cccc(C(=O)NCc2ccc(N3CCCCC3)nc2)n1` | 23.76 | -1.519 | 24.43 |
| `Cc1ccc(-c2cnn(CC(=O)NC(C)C)c2)cc1` | 12.5 | -25.82 | 26.89 |
| `Cc1cc2nc(CO[C@H]3CN(C)C[C@H]3F)[nH]c2cc1C` | -9.67 | 1.47 | -1.827 |
| `CC(C)Sc1ccc(C(C)NC(=O)CNS(C)(=O)=O)cc1` (stereo unspecified) | -22.24 | -11.4 | -17.96 |
| `CNC(=O)c1c(C)cccc1NCC(=O)Nc1cc(C)nn1C` | -34.03 | 4.628 | -14.25 |
| `Cc1cc(NC(=O)NCCc2cscn2)nn1C` | 25.55 | -1.523 | 8.886 |
| `CCOCn1cc(NC(=O)C2CCN(S(C)(=O)=O)CC2)cn1` | -8.388 | -13.77 | 18.64 |
| `CC(Cn1ccnc1)NC(=O)N1CCN(Cc2ccncc2)CC1` (stereo unspecified) | 8.219 | -10.39 | -0.977 |
| `CC(=O)N1CCC(=O)N(C2CCCC2)Cc2ccccc21` | -34.47 | -2.678 | -7.455 |
| `CCS(=O)(=O)c1ncc(CN(C)Cc2ccc(C)o2)n1CCOC` | -20.49 | 12.73 | -9.93 |
| `COc1ccc2c(c1)CCCN2Cc1nc(C)c(C)o1` | - | 15 | 1.019 |
| `O=C1CCC(=O)N1CCN1CCN(c2cc(F)ccc2F)CC1` | 0.2603 | 0.9451 | 24.96 |
| `Cc1ccc(S(=O)(=O)Nc2ccc(-n3cccc3C(=O)O)c(C)c2)s1` | 14.74 | 2.866 | 8.864 |
| `CC(C(=O)N1CCC(Nc2cccnn2)CC1)n1cccn1` (stereo unspecified) | -15.51 | 5.367 | 9.46 |
| `[H][C@]12CC[C@]([H])(CN(S(C)(=O)=O)C1)N(C(=O)Cn1nc3ccccc3n1)C2` | -10.28 | 4.169 | -4.975 |
| `O=C(Cn1nc2ccccc2n1)N1CCCC(O)(CN2CCCC2)C1` (stereo unspecified) | -21.26 | 3.999 | 25.35 |
| `Cc1occc(=O)c1OCc1noc(C(=O)NC(C)C)n1` | -47.87 | 7.86 | -12.71 |
| `Cn1cnnc1CNC(=O)c1ccc(Br)cc1O` | -49.58 | 1.371 | 19.21 |
| `CC1CN(CC(=O)NCc2ccc(F)cc2)CCN1c1nccs1` (stereo unspecified) | -59.24 | 6.872 | 8.186 |
| `CC(=O)c1ccc(N2CCCC(CO)(Cc3ccccc3C)C2)nc1` (stereo unspecified) | -6.304 | -2.109 | 44.66 |
| `Cc1cc(C(=O)N2CCCC2CN2CCCC2)no1` (stereo unspecified) | -31.57 | 2.308 | -18.5 |
| `CC(C)OC(=O)c1ccc(Cl)c(NC(=O)NCCN2CCOCC2)c1` | - | -6.238 | 13.05 |
| `COCCN1CCN(c2ncnc3nc(C)cc(C)c23)CC1` | -6.98 | 3.162 | 21.32 |
| `COCCNC(=O)CCNc1cc(C)nc(-c2ccncc2)n1` | - | 15.51 | 1.74 |
| `COC(=O)[C@H](C)NC(=O)CSCc1nc2sc(C(C)C)cc2c(=O)[nH]1` | 7.391 | 3.1 | 23.22 |
| `O=C(c1ccnn1COc1ccc(Cl)cc1)N1CCCC1` | -0.4222 | 17.23 | 18.72 |
| `CCn1c(CN(C)C(=O)c2ccc(OC)nc2)nc2ccccc21` | -44.55 | -1.561 | 8.735 |
| `CCOc1ccc(NC(=O)NC2CCc3[nH]ncc3C2)cn1` (stereo unspecified) | 1.745 | 3.558 | 18.5 |
| `CCN1CCN(c2ncc(-c3cc(C)no3)c(-c3ccoc3C)n2)CC1` | 8.766 | 26.84 | 0.3764 |
| `COCCN1CCCC2(CCN(c3ncc(Cl)cc3Cl)C2)C1=O` (stereo unspecified) | -28.3 | 0.5239 | 21.29 |

The first 7 entries again:

CC1(C)OCC(CNC(=O)c2cnn(-c3cccc(Cl)c3Cl)c2N)O1 (stereo unspecified) read T. brucei: -54.32%; Toxoplasma: -20.19%; Leishmania in macrophages: 16.89%.
O=C(O)C(F)(F)F.O=C1COC2(CCN(CC3CC3)CC2)CN1c1cncnc1 read T. brucei: -12.06%; Toxoplasma: -2.109%; Leishmania in macrophages: 4.586%.
CC(C)(C)c1ncc(S(C)(=O)=O)c(C2CCCNC2)n1 (stereo unspecified) read T. brucei: -10.33%; Toxoplasma: 9.886%; Leishmania in macrophages: 2.188%.
COCC(=O)N1CCCC(C(=O)c2cnn(-c3ccc(F)cc3)c2N)C1 (stereo unspecified) read T. brucei: -21.38%; Toxoplasma: 7.678%; Leishmania in macrophages: 21%.
COc1ccc(C(=O)O)cc1-c1cccc(C(C)N(C)C)c1 (stereo unspecified) read T. brucei: -46.07%; Toxoplasma: 9.459%; Leishmania in macrophages: 8.654%.
C[C@H](O)CNC(=O)c1cnc(-c2ccccc2)nc1O read T. brucei: 12.08%; Toxoplasma: -1.039%; Leishmania in macrophages: 5.617%.
Cn1cc(CC2CCN(C(=O)NCCCc3ccc(O)cc3)C2)cn1 (stereo unspecified) read T. brucei: -5.437%; Toxoplasma: -15.35%; Leishmania in macrophages: 0.9752%.